According to US12178838B2, “Synthetic neuromodulatory peptides” (Lactocore, Inc., priority 2019, dated 2024):
Where “and” joins values, the source holds several entries; their conditions need not be identical. Equal entries are not always repeated.

Columns and labels:
[1] = system: Wistar rats after chronic unpredictable mild stress; test: CUMS model: Female Urine Sniffing Test; type: in vivo; conditions: FQSE 0.5 mg/kg i.n.; Diazepam 0.5 mg/kg i.p.; 8 injections
Description: (§1) During stress, the animals were placed in individual cells and exposed to stressful conditions each day for 26 days. Two stressors were used daily, applied in the following order: • Day 1. 10 am-6 pm, rats were placed in a cold room for an hour. From 6 PM to 10 am the lights were turned on and off every 2 hours. • Day 2. 10 am-6 pm, cage tilted to 45°. From 6 PM to 10 am water deprivation. • Day 3. 10 am-6 pm, stroboscopic light. From 6 PM to 10 am the light was left on overnight. • Day 4. 10 am-6 pm, wet bedding. From 6 PM to 10 am the animals were put in a small mouse cage. • Day 5. 10 am-6 pm, no bedding. From 6 PM to 10 am the lights were turned on and off every 2 hours. • Day 6. 10 am-6 pm, a new rat was placed in the cage (6-month-old). […]
The FUST test was used to evaluate anhedonia, sexual motivation, and exploratory behavior associated with a depressive condition in rodents (Gould et al. (2009). Mood and anxiety related phenotypes in mice. Humana Press). […] The latency of the approach to the swab, the time, and the number of sniffs were recorded. […] The latency of the approach to the swab, the time and the number of sniffs were also recorded. To determine the preference, an index was calculated using the formula: time spent sniffing urine*100%/total sniffing time. […] It is expressed as a decreased latency of approach to the moistened swab and a longer duration of the interaction. […]

[2] = system: BALB/C mice; test: Elevated Plus Maze test in mice; type: in vivo; conditions: ip; FQSE 1 mg/kg; Diazepam 0.75 mg/kg
Description: After an adaptation period, the test substance was intraperitoneally injected into mice. Behavioral parameters were measured in 30 minutes after injection. The tests were administered as follows: day 1—the Open field test, day 3—the Elevated plus maze test, day 5—the Marble burying test, days 12-13—the Porsolt swim (two-day modification) test.
In the elevated plus maze test, a test arena includes two open and two closed arms crossed in the middle. The arm length is 30 cm, the height of the closed arms side walls is 15 cm. The entire installation is raised 70 cm above the floor. The open arms have bright uniform illumination of about 400 lux, and the closed arms have illumination of about 30-40 lux. Mice were placed at the junction of the four arms of the maze (center), facing an open arm. […] The same set of parameters, as well as a latent period and the duration of stay, were measured for the central sector, open and closed arms separately. […]
The second group of parameters includes a time on open arms (in seconds) (FIG. 35), a number of open arms entries (FIG. 36), a number of risk behavior (number of rearings and dangle events, as shown in FIG. 37]), and an anxiety index (FIG. 38). The anxiety index (AI) was calculated using the following formula: AI=100*(1−(time on open arms/total test time+open arms entries/total number of entries)/2)

[3] = system: FQSE (SEQ ID NO:10)-specific binding sites in the rat cortex; test: Radioligand analysis with [3H] FQSE on rat cortex membranes
Description: After decapitation, the tissues were immediately frozen in liquid nitrogen and stored in a low-temperature refrigerator at −80° C. On the day of the experiment, brain tissue (cortex, about 300 mg) was homogenized in a Teflon-glass Potter homogenizer 1:25 W:V in the buffer (50 mM Tris-HCl, pH 7.4). The homogenate was centrifuged at 40,000 g for 20 min. The obtained precipitate was homogenized in a buffer (50 mM Tris-HCl; pH=7.4) and centrifuged again at 40,000 g for 20 min. A similar procedure was performed again. The precipitate was resuspended in 15 ml of the same buffer and used for the radioligand analysis.
The incubation mixture (final volume 0.5 ml) contained 50 μl […]
At the end of the incubation, the samples were filtered through Ge/C glass fiber filters (Whatman) previously moistened with 0.3% polyethyleneimine for 2 hours at room temperature. Each tube was washed twice with cold buffer, then the filters were washed twice with the same volume of buffer.
The filters were air-dried and transferred to scintillation vials. Filters were poured with 5 ml of toluene-based scintillation liquid (4 g PPO, 0.2 g POPOP per liter of toluene).
To construct the curves of the radioactive ligand's displacement each concentration of the test substance was taken in 3 replications. […]

[4] = system: zebrafish (Danio rerio); test: Light/dark box test in zebrafish; type: in vivo; conditions: ip; FQSE 10 mg/kg; diazepam 5 mg/kg
Description: The tested substances were injected into the zebrafish intraperitoneally (ip) using an insulin syringe (0.5 ml, 30 g) 10 minutes before the test. The saline solution (0.9% NaCl) was used as a solvent. Anesthesia and immobilization of the animals were achieved by placing them in water at a temperature of 10° C. Control group fish received intraperitoneal injections of an equivalent volume of solvent, also after going through a pre-cooling procedure.
A base, back, and side walls of the aquarium were made of matte black plastic; the front panel (shorter wall) was made of transparent Plexiglas. The setup for the Light/Dark preference test consisted of three main parts: a launch compartment, a light compartment made of white plastic, and a dark compartment made of black plastic. […]
The light/dark box (LDB) test was performed as described in Maximino et al., 2011. The zebrafish was placed in a light compartment of an LDB using a net, the camera was switched on simultaneously, and the behavior of the zebrafish was recorded for 5 minutes. […] During the processing of records, the residence time and the number of visits to the light and dark compartments of the test setup were recorded, as well as the latent period of visiting both compartments.

[5] = system: Wistar rats after chronic unpredictable mild stress; test: CUMS model: Sucrose Preference Test; type: in vivo; conditions: diazepam 0.5 mg/kg i.p.; FQSE 0.05 and 0.5 mg/kg i.n.; 16 injections
Description: as §1, with “(6-month-old). From 6 PM to 10 am the light was left on overnight. • Day 7. 10 am-6 pm, white noise.” for “(6-month-old).”
A test was used to determine the preference for a sucrose solution to assess the state of anhedonia (rejection of pleasure), a key symptom of depression. […] The drinkers were pre-weighed, and the volume of liquid consumed was calculated based on the mass difference. The measured parameters included the volume of regular water, sweet water, and the total volume of liquid consumed. The preference index was calculated using the formula: The volume of sweet water consumed*100%/Total volume of liquid consumed. […]

CN1C(=O)CN=C(c2ccccc2)c2cc(Cl)ccc21 [Diazepam]
female urine preference index [1]: had no effect
Anxiety index [2]: 73±4.7%
Amount of bound [3H] FQSE after pre-incubation compared to control level [3]: 90% and 86%
decrease in the time spent in the dark compartment relatively to the control group [4]: approximately 40%
relative increase in the time spent in the light compartment compared with the control group [4]: approximately 210%
sucrose preference index [5]: no significant changes
